Results: PMC11845846
No constants are given. Whether binding was seen depends on the method and setting. In cells and extracts the contact can be indirect. Some binding calls cover weakened binding; strength is not graded here. Each block holds one molecule with its values, some of them ahead of it.

By UniProt entry, the sequences of proteins in these tests, tags left out. Residues count along the entry.
UniProt Q92673, residues 82-2214: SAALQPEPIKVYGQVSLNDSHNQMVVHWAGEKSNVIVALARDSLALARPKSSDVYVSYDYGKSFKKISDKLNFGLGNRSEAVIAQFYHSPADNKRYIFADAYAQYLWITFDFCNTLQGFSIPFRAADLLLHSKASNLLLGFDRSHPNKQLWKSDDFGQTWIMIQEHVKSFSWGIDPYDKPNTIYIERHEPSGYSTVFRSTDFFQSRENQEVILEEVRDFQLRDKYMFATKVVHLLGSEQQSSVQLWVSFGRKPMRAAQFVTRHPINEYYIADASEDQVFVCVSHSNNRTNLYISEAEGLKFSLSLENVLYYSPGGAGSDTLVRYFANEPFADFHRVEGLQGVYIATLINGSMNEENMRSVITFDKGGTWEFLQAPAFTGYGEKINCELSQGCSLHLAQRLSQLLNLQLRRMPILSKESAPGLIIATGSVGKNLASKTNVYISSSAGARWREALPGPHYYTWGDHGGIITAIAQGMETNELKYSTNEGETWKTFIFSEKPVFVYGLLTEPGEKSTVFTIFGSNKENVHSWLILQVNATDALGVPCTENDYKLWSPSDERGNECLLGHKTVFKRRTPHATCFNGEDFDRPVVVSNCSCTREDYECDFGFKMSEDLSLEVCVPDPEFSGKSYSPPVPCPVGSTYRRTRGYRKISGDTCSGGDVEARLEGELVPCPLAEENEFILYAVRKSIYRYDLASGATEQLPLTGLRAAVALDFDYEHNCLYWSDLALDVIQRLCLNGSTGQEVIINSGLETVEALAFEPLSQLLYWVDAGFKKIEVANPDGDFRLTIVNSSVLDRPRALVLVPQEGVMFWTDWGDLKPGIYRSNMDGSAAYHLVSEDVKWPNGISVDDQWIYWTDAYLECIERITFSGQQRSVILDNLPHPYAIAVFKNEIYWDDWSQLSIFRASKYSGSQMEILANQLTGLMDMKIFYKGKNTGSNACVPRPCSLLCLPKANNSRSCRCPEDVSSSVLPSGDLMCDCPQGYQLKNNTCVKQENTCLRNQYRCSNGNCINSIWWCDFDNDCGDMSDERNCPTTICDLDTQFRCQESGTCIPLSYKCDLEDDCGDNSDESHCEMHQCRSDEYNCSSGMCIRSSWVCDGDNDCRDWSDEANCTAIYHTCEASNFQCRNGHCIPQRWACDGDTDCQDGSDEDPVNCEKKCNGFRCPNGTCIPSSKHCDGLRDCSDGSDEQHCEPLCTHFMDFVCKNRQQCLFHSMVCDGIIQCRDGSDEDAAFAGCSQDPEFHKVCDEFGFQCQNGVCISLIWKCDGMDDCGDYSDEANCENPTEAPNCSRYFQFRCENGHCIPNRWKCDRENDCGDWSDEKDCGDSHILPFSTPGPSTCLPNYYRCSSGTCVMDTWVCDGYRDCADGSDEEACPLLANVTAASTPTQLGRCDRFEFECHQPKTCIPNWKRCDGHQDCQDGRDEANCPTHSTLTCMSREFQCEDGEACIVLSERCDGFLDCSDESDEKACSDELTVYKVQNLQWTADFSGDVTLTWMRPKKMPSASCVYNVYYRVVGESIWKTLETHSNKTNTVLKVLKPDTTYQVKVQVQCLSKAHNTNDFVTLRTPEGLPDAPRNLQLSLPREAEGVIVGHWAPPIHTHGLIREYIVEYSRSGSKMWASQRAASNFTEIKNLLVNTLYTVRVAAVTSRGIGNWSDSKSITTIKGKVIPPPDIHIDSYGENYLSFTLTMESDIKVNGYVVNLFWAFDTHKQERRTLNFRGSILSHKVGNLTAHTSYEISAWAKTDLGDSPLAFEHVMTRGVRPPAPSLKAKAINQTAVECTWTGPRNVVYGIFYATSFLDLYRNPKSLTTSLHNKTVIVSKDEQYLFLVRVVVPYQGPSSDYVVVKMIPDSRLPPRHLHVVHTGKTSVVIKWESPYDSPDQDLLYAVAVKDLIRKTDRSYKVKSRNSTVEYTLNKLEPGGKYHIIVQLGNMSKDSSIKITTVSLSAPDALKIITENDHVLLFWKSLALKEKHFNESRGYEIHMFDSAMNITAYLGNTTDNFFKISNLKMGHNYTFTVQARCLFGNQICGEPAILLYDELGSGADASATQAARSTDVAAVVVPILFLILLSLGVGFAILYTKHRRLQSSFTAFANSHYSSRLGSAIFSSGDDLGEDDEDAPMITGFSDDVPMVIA
UniProt P04406: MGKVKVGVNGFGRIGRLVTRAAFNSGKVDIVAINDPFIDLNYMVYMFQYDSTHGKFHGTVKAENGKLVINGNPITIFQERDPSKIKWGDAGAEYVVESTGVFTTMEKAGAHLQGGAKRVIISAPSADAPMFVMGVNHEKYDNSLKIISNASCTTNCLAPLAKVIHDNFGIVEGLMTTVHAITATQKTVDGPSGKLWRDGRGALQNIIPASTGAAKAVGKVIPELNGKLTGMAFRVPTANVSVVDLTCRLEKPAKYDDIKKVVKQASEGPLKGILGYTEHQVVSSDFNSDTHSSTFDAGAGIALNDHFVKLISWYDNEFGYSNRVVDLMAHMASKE

Assays:
[1] = molecular target: T1, CD14 (UniProt P08571); test: co-IP; transfected HEK293 cells; immunoprecipitation of CD14 or of SORLA from co-transfected cells, with singly transfected cells as controls; the other protein detected on blots
T1 sequence: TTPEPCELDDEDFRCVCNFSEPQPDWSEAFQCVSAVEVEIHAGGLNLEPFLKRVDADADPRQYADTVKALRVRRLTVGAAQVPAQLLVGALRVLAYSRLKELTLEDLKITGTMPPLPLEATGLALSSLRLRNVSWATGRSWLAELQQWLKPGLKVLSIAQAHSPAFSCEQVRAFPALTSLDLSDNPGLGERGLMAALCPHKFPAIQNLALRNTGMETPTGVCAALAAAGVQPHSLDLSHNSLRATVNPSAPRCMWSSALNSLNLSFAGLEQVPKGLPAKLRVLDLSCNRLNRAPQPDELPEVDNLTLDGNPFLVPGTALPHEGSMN

[2] = molecular target: Sorting protein‐related receptor containing class A repeats (SORLA) (UniProt Q92673); test: as above

- binding [1]: no binding
- binding [2]: no binding
Molecule: GAPDH (from UniProt P04406 1-335)

- binding [1]: binds
Molecule: Sorting protein‐related receptor containing class A repeats (SORLA) (from UniProt Q92673 82-2214)

- binding [2]: binds
B1: CD14 (receptor, UniProt P08571 20-345)
chain: T1 sequence
